This is one part of the list.
Assays:
Assay in all cases: log2 fold change, soluble protein after heating vs DMSO (PISA); higher = thermal stabilisation; K562 cells, 10 uM, 30 min; active = over 0.2 and 3.5 SD of the protein, either way, in both replicates (recomputed)
[1] = compound: COC1=CC=C(C=C1)CN2C=CC3=C2C=C(C=C3)C(=O)NO
Procedure, shortened: (§1)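 Thermal stability values are relative to control samples and come from duplicates. They are expressed as log2 fold changes. For measurement, K562 cells (2×10^6 cells/mL) received 10 μM compound for 30 min, and aliquots were heated for 3 min over 48°C-58°C, pooled, and extracted at 4°C in PBS with 0.5% NP-40. Soluble protein, the supernatant after 21,000xg for 90 min, was quantified by TMTpro 16plex LC-MS/MS with equalised channel sums.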

By UniProt entry, the sequences of proteins in these tests, tags left out. Where a name states a change or a piece, a line headed by the entry shows the natural chain unless it says otherwise.
UniProt Q9Y679: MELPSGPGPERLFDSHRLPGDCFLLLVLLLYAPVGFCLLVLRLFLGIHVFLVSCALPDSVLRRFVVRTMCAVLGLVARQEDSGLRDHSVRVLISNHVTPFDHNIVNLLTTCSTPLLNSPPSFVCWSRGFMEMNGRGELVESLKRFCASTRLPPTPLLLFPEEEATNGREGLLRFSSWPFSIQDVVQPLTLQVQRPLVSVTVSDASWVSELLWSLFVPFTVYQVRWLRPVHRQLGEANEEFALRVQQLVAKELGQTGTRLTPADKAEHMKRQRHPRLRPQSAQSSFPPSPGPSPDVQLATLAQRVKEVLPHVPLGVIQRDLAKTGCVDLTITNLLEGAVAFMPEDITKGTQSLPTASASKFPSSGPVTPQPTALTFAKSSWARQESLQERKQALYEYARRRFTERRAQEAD
UniProt O95816: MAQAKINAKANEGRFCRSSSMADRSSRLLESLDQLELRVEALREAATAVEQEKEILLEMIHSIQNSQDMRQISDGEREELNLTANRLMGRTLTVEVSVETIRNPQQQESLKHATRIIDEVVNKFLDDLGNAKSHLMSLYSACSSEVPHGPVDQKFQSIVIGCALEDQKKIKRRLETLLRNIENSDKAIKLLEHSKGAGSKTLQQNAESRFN
UniProt Q14457, whole entry, looked up: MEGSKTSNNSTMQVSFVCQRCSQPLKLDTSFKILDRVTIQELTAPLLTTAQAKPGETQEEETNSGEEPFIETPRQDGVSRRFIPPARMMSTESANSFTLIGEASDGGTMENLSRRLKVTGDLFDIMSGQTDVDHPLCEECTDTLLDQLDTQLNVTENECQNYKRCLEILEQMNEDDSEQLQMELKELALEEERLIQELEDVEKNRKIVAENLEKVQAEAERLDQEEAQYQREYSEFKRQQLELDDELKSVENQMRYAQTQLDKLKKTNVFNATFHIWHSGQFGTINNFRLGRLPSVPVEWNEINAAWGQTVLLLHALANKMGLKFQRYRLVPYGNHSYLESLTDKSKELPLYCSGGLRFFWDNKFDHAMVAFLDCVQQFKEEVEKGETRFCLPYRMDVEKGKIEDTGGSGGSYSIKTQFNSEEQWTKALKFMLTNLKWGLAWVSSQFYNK
UniProt O75934: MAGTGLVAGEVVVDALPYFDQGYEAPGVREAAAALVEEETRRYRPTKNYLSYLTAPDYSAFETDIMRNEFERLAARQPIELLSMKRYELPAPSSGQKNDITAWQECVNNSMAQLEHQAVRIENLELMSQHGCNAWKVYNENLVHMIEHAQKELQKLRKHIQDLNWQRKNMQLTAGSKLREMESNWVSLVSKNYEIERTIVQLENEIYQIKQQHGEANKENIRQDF
UniProt Q9UHQ4: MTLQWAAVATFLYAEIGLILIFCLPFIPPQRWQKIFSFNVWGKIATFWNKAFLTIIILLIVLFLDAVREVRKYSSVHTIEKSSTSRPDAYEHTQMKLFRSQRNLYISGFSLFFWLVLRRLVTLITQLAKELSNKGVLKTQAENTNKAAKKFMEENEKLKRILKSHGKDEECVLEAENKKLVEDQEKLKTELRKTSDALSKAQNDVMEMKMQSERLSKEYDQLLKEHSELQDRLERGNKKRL
UniProt Q9P287, whole entry, looked up: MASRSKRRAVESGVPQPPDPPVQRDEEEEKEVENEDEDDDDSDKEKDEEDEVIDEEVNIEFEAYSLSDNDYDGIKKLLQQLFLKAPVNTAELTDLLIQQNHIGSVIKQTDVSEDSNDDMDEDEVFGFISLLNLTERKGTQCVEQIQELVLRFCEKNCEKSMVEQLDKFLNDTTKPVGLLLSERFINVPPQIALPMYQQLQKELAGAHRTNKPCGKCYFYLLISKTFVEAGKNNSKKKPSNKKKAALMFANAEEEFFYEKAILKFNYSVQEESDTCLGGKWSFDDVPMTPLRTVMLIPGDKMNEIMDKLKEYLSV
UniProt Q9UBB4: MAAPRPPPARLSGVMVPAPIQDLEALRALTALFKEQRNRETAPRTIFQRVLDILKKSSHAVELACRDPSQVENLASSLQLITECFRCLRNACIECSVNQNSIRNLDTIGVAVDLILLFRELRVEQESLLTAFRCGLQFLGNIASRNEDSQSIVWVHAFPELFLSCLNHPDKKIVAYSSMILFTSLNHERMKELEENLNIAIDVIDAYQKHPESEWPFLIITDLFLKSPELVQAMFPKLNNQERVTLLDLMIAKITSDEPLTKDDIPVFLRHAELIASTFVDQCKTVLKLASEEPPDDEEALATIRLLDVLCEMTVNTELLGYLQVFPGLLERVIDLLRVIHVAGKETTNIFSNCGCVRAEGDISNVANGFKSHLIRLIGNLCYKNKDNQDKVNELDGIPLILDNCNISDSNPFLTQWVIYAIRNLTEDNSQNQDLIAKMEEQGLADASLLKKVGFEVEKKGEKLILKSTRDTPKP
UniProt Q9H0E9, whole entry, looked up: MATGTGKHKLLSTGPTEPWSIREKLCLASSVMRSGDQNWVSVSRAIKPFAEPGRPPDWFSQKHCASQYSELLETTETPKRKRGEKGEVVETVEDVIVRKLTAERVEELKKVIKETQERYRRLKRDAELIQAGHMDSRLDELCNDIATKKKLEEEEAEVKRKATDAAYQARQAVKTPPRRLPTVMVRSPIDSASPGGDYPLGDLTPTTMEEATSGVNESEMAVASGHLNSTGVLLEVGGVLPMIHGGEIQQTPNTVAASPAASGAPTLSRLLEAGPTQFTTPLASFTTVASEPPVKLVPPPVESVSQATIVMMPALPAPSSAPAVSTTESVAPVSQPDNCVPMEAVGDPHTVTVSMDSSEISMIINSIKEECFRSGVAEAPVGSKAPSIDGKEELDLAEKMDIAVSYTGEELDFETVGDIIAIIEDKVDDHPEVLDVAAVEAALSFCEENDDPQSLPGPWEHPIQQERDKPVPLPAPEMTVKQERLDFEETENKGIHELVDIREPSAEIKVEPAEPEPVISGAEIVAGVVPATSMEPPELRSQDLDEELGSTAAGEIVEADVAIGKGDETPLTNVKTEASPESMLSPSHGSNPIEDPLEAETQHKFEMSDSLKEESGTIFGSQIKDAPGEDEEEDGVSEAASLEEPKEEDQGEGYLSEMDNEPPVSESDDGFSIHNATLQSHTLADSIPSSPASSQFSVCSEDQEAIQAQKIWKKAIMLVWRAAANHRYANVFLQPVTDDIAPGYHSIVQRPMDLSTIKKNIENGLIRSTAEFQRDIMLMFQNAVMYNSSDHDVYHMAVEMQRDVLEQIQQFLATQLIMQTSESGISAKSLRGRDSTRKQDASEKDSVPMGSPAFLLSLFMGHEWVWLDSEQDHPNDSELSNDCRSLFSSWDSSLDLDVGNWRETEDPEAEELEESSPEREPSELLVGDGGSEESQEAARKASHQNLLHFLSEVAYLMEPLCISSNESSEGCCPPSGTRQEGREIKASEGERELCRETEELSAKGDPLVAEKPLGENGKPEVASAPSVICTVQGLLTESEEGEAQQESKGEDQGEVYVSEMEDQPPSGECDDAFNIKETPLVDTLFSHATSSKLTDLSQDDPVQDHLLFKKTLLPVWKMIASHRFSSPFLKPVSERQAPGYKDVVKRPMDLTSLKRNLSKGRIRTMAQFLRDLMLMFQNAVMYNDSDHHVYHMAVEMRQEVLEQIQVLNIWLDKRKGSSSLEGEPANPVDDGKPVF
UniProt Q9Y276: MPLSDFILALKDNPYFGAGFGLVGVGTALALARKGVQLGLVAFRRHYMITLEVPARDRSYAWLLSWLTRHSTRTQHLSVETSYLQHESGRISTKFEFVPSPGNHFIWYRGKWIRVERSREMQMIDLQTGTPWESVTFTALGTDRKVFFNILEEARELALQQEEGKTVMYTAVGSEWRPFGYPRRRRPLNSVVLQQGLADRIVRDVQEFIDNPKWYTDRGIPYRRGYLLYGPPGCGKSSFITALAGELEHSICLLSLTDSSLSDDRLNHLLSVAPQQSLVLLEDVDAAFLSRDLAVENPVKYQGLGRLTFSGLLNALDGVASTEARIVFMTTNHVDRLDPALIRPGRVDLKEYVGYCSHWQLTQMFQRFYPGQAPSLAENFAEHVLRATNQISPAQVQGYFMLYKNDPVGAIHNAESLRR
UniProt Q9UHR4: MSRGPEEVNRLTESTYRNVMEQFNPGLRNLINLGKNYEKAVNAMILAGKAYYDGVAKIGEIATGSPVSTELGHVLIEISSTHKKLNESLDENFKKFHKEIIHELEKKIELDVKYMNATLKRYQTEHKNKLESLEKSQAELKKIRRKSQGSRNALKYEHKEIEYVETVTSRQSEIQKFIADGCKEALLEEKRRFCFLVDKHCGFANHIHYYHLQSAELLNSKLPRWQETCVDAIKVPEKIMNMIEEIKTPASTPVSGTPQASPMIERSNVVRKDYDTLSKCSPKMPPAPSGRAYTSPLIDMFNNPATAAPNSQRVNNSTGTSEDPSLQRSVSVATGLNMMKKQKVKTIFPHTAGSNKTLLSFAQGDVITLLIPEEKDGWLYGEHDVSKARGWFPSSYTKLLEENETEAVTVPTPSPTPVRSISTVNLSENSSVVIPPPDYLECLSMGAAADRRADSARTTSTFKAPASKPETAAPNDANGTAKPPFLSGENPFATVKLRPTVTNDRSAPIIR
UniProt P15291: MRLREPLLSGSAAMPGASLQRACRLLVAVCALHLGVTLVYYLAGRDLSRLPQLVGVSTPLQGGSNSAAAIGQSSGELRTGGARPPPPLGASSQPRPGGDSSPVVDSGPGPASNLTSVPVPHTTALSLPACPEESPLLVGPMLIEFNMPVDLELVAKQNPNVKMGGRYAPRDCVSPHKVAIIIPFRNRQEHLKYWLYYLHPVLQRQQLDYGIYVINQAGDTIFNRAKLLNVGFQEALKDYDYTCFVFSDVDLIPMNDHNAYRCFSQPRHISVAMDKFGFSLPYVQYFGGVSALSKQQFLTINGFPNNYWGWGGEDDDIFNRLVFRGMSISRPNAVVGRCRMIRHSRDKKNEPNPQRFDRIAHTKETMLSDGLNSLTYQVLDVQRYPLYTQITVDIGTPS
UniProt P30043: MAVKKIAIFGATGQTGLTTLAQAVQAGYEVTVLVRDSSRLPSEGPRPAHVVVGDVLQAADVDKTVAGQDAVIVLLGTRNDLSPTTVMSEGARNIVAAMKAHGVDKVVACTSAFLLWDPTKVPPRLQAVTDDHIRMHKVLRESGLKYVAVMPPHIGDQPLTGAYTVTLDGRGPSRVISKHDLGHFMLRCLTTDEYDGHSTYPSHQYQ
UniProt Q8WXE1: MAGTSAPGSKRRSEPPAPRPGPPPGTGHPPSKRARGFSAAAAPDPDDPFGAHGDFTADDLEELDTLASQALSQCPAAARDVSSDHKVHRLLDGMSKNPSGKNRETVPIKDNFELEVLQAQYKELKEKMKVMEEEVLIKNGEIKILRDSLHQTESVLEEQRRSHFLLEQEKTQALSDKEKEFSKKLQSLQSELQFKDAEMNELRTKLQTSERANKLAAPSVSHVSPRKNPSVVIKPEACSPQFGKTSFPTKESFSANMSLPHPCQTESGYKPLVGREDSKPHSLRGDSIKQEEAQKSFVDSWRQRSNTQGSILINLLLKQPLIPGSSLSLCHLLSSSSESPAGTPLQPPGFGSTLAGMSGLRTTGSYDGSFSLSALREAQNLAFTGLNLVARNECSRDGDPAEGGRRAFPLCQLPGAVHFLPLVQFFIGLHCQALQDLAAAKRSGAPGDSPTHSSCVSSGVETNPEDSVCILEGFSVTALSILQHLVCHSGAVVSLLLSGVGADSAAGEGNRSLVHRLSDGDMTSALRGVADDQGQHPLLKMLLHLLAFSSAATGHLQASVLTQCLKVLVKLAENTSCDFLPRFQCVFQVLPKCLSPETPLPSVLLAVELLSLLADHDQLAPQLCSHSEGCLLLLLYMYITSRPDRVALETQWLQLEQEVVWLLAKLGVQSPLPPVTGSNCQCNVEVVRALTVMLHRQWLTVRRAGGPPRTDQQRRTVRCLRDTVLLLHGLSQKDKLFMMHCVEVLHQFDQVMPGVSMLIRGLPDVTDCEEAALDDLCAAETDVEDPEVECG

[2] = compound: CON(C)C(=O)N1N=C(c2cc(F)ccc2F)S[C@@]1(CCCN)c1ccccc1 [filanesib]
Procedure, shortened: as §1

[3] = compound: CO[C@H]1C[C@@H]2CC[C@@H](C)[C@@](O)(O2)C(=O)C(=O)N2CCCC[C@H]2C(=O)O[C@H]([C@H](C)C[C@@H]2CC[C@H](n3cnnn3)[C@H](OC)C2)CC(=O)[C@H](C)/C=C(\C)[C@@H](O)[C@@H](OC)C(=O)[C@H](C)C[C@H](C)/C=C/C=C/C=C/1C [zotarolimus]
Procedure, shortened: as §1

[4] = compound: COc1cc(C(=O)O)ccc1NC(=O)[C@@H]1N[C@@H](CC(C)(C)C)[C@](C#N)(c2ccc(Cl)cc2F)[C@H]1c1cccc(Cl)c1F [idasanutlin]
Procedure, shortened: as §1

[5] = compound: COc1cc(Nc2ncc3c(n2)-c2ccc(Cl)cc2C(c2c(F)cccc2OC)=NC3)ccc1C(=O)O [alisertib]
Procedure, shortened: as §1

[6] = compound: COc1cc2nc(-c3cc(F)ccc3O)nc(N[C@@H]3CNC[C@H]3C(C)(C)O)c2cc1OC
Procedure, shortened: as §1

[7] = compound: COc1cc2ncnc(Nc3ccc(F)c(Cl)c3)c2cc1OCCCN1CCOCC1 [gefitinib]
Procedure, shortened: as §1

[8] = compound: COc1cccc2cc(-c3nc([C@H]4CC[C@H](C(=O)O)CC4)n4ncnc(N)c34)[nH]c12
Procedure, shortened: as §1

[9] = compound: CS(=O)(=O)CCNCc1ccc(-c2ccc3ncnc(Nc4ccc(OCc5cccc(F)c5)c(Cl)c4)c3c2)o1 [lapatinib]
Procedure, shortened: as §1

[10] = compound: CS(=O)(=O)N1CCN(Cc2cc3nc(-c4cccc5[nH]ncc45)nc(N4CCOCC4)c3s2)CC1 [pictilisib]
Procedure, shortened: as §1

| Target | log2 fold change [1] | log2 fold change [2] | log2 fold change [3] | log2 fold change [4] | log2 fold change [5] | log2 fold change [6] | log2 fold change [7] | log2 fold change [8] | log2 fold change [9] | log2 fold change [10] |
| --- | --- | --- | --- | --- | --- | --- | --- | --- | --- | --- |
| AUP1 (UniProt Q9Y679) | inactive: -0.069 | active: -0.269 | inactive: -0.014 | inactive: -0.022 | inactive: -0.013 | inactive: -0.163 | inactive: -0.034 | inactive: 0.022 | inactive: -0.007 | inactive: -0.059 |
| BAG2 (UniProt O95816) | inactive: -0.071 | inactive: 0.24 | inactive: 0.05 | inactive: 0.046 | inactive: -0.201 | inactive: -0.081 | inactive: -0.022 | inactive: -0.195 | inactive: 0.12 | inactive: -0.045 |
| BECN1 (UniProt Q14457) | inactive: 0.094 | inactive: -0.005 | inactive: -0.142 | inactive: -0.159 | inactive: -0.081 | inactive: 0.117 | inactive: 0 | inactive: -0.045 | inactive: 0.008 | inactive: 0.086 |
| BCAS2 (UniProt O75934) | inactive: -0.037 | inactive: 0.041 | inactive: 0.05 | inactive: -0.06 | inactive: -0.119 | inactive: 0.043 | inactive: -0.038 | inactive: 0.01 | inactive: -0.05 | inactive: -0.015 |
| BCAP29 isoform 2 (UniProt Q9UHQ4) | inactive: -0.033 | inactive: -0.047 | inactive: -0.022 | inactive: 0.027 | inactive: -0.023 | inactive: -0.1 | inactive: 0.035 | inactive: 0.035 | inactive: -0.009 | inactive: -0.027 |
| BCCIP (UniProt Q9P287) | inactive: -0.022 | inactive: 0.06 | inactive: 0.031 | inactive: -0.048 | inactive: -0.086 | inactive: 0.033 | inactive: 0.036 | inactive: -0.024 | inactive: 0.01 | inactive: -0.024 |
| ATXN10 (UniProt Q9UBB4) | inactive: 0.034 | inactive: -0.064 | inactive: 0.027 | inactive: -0.094 | inactive: -0.084 | inactive: 0.174 | inactive: -0.006 | inactive: 0.021 | inactive: 0.013 | inactive: -0.035 |
| BRD8 (UniProt Q9H0E9) | inactive: -0.013 | inactive: 0.064 | inactive: -0.029 | inactive: 0.08 | inactive: -0.061 | inactive: -0.032 | inactive: 0.005 | inactive: 0.017 | inactive: -0.009 | inactive: 0.103 |
| BCS1L (UniProt Q9Y276) | inactive: -0.032 | inactive: -0.014 | inactive: -0.049 | inactive: -0.072 | inactive: -0.041 | inactive: 0.041 | inactive: 0.028 | inactive: 0.029 | inactive: -0.021 | inactive: 0.053 |
| BORCS5 (UniProt Q969J3) | inactive: -0.012 | inactive: -0.073 | inactive: 0 | inactive: 0.004 | inactive: 0.276 | inactive: 0.007 | inactive: 0.001 | inactive: 0.017 | inactive: 0.009 | inactive: -0.09 |
| BAIAP2L1 (UniProt Q9UHR4) | inactive: -0.043 | inactive: -0.019 | inactive: -0.017 | inactive: -0.003 | inactive: 0.007 | inactive: 0.013 | inactive: 0.014 | inactive: 0.021 | inactive: 0.004 | inactive: 0.025 |
| B4GALT1 (UniProt P15291) | inactive: -0.04 | inactive: 0.014 | inactive: 0.067 | inactive: 0 | inactive: 0.051 | inactive: -0.037 | inactive: 0.022 | inactive: 0.021 | inactive: 0.042 | inactive: 0.128 |
| BLVRB (UniProt P30043) | inactive: 0.113 | inactive: -0.073 | inactive: 0.024 | inactive: -0.045 | inactive: -0.07 | inactive: 0.045 | inactive: 0.061 | inactive: 0.015 | inactive: 0.071 | inactive: 0.037 |
| ATRIP (UniProt Q8WXE1) | inactive: -0.152 | inactive: 0.016 | inactive: 0.034 | inactive: 0 | inactive: -0.02 | inactive: 0.1 | inactive: 0.001 | inactive: -0.013 | inactive: 0.019 | inactive: 0.006 |
| BCKDK (UniProt O14874) | inactive: -0.029 | inactive: 0.04 | inactive: -0.025 | inactive: 0.022 | inactive: -0.083 | inactive: 0 | inactive: 0.018 | inactive: 0.04 | inactive: 0.002 | inactive: 0.198 |

A different layout for some results above.
Target,log2 fold change [1],log2 fold change [2],log2 fold change [3],log2 fold change [4],log2 fold change [5],log2 fold change [6],log2 fold change [7],log2 fold change [8],log2 fold change [9],log2 fold change [10]
BAG2 (UniProt O95816),inactive: -0.071,inactive: 0.24,inactive: 0.05,inactive: 0.046,inactive: -0.201,inactive: -0.081,inactive: -0.022,inactive: -0.195,inactive: 0.12,inactive: -0.045
BECN1 (UniProt Q14457),inactive: 0.094,inactive: -0.005,inactive: -0.142,inactive: -0.159,inactive: -0.081,inactive: 0.117,inactive: 0,inactive: -0.045,inactive: 0.008,inactive: 0.086
